In patent US20230042936A1, “PYRIDO[2,3-d]PYRIMIDIN-7(8H)-ONES AS CDK INHIBITORS” (PROSENESTAR LLC, priority 2020, published 2023):
At least one compound was matched to its structure with a doubt left.

Key:
[1] = tested on: MDA-MB-231 human breast cancer cells; assay: Cell cycle analysis (DNA content, flow cytometry); assay type: cell-based; conditions: GI50 concentration; FIG. 1
Protocol: FIG. 1 depicts DNA content profiles of MDA-MB-231 human breast cancer cells treated with subject compounds or commercial CDK inhibitors, showing the percentage of cells at the different cell cycle phases after 48 hours of the treatments indicated. (n=6 technical replicates).
Cells were collected by trypsinization, washed with PBS and fixed with cold 70% ethanol. Cells were treated with 250 μg/ml RNase (Qiagen) for 30 minutes at 37° C. and stained with 10 μg/ml Propidium Iodide (Sigma). Cell cycle was analyzed by flow cytometry using a LSR Fortessa Analyzer. Cell cycle profiles were generated and analyzed with FlowJo software.
Cells were collected by tripsinization at several times after treatment with the indicated compounds and, then, fixed with cold 70% Ethanol. DNA content was determined by staining with propidium iodide (10 μg/ml, Sigma Aldrich). Data acquisition was performed with a LSR Fortessa analyzer (BD Biosciences) and analysed using FlowJo software.

[2] = tested on: pRB phosphorylation and cell cycle markers in MDA-MB-231 and MDA-MB-468 cells; assay: Immunoblotting of cell cycle markers; assay type: cell-based, human; conditions: GI50 dose, 48 hours; FIG. 6
Protocol: MDA-MB-231 and MDA-MB-468 cells were treated with the indicated compounds using the G150 corresponding to the MDA-MB-231 cell line, and 48 hours later lysed in Laemmli buffer (60 mM Tris-Cl pH 6.8, 10% Glycerol, 2% SDS). Protein concentration was determined using BCA method (Pierce).

Cdk4/6_KO MEFs = assay: Cell growth in Cdk-deficient MEFs; assay type: cell-based, mouse; conditions: relative cell count day 6 versus day 3; FIG. 4; listed as Palbocilib
Protocol: Cdk-deficient MEFs were plated in 10-cm dish in triplicate (100,000/well) and treated with the selected compounds at the indicated concentration, based on GI50 previously determined in the MDA-MB-231 cell line. Cells were counted in an optical microscope 3 and 6 days after treatment to estimate the relative cell growth in each condition.
To further investigate the relative functional dependence of the subject compounds on CDK2 versus CDK4 or CDK6, the specific effects of PS004, PS006 and PS009 were tested on CDK-deficient mouse embryonic fibroblasts (MEFs) obtained from Cdk2 knock out, Cdk4; Cdk6-double knock out and Cdk2; Cdk4; Cdk6-triple knock out mouse models.

[3] = tested on: MDA-MB-231-derived xenografts; assay: Tumor xenografts; assay type: in vivo, Athymic nude mice; conditions: 100 mg/Kg oral gavage 5 days/week, 12 days
Protocol: For histological analysis, mice tissues and human xenografts were fixed in 10%-buffered formalin (Sigma) and embedded in paraffin wax. Sections of 3- or 5-μm thickness were stained with haematoxylin and eosin. Additional immunohistochemical examination was performed using a specific antibody against phospho-Rb (Ser807/811; Cell Signaling) or Ki67 (DAKO).
DMSO, PS004, PS006 and PS009 were diluted in sesame oil and administered intraperitoneally twice per week during two weeks at 100 mg/Kg. […] Tumor growth was monitored using caliper measurements and tumor size was estimated using the following formula: Tumor volume (mm^3)=d^2·D/2 where d and D, are the shortest and longest diameter in mm, respectively. After completing the treatment, mice were sacrificed and tumors were extracted, weighed, and fixed for histological analysis.
The therapeutic effect of the subject compounds was then tested by treating mice previously injected subcutaneously with MDA-MB-231 breast cancer cells. […] The dose amount of 100 mg/kg dosage in these cases was administered at a frequency of two injections per week for the total of two weeks of treatment.

SMILES: CCN1CCN(Cc2ccc(Nc3ncc(F)c(-c4cc(F)c5nc(C)n(C(C)C)c5c4)n3)nc2)CC1 [Abemaciclib, reference compound]
- cell cycle arrest by DNA content [1]: robust G0/G1-phase arrest

SMILES: CC(=O)c1c(C)c2cnc(Nc3ccc(N4CCNCC4)cn3)nc2n(C2CCCC2)c1=O [Palbociclib, reference compound]
- levels of cell cycle markers [2]: reduced levels of most cell cycle markers
- pRB phosphorylation [2]: strong inhibition
- cell proliferation of Cdk4; Cdk6-double knock out MEFs (Cdk4/6_KO MEFs): did not reduce cell proliferation
- cell cycle arrest by DNA content [1]: robust G0/G1-phase arrest
- phospho-RB levels in the xenografts ([3]; FIG. 9A): significantly reduced
- tumor weight ([3]; vs lactate buffer, FIG. 8A): significantly reduced
- tumor growth ([3]; vs lactate buffer, FIG. 8B): significantly reduced
